Experimental findings from patent US20160376339A1 (CURACLE, published 2016) are described below.

Assay [1] addresses T1, 3-phosphoinositide-dependent kinase 1 (PDK1), endogenous in HUVECs (human) (UniProt O15530).
T1 sequence (looked up): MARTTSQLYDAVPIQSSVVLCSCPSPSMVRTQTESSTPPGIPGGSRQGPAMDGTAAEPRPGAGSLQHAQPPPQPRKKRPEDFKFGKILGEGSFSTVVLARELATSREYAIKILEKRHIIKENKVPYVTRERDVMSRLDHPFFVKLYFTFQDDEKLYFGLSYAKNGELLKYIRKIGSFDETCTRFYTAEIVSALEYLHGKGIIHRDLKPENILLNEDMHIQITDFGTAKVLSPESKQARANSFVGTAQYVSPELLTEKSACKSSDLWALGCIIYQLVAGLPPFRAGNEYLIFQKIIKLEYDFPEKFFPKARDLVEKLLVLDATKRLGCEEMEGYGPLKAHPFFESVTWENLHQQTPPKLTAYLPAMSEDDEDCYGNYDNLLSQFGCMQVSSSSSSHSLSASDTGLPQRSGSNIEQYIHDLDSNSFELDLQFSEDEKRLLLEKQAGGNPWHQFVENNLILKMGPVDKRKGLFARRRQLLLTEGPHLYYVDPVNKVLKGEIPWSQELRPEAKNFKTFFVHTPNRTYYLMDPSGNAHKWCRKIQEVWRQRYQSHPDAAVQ
Kind of assay: co-immunoprecipitation from HUVECs (IP anti-AMIGO2, blot anti-PDK1).

Assay [2] deals with T1, 3-phosphoinositide-dependent kinase 1 (PDK1), endogenous in HUVECs (human). Kind of assay: co-immunoprecipitation from VEGF-treated HUVECs (IP anti-AMIGO2, blot endogenous PDK1).
Assay [3] shares this target. As to the kind of experiment: co-immunoprecipitation of endogenous proteins from HUVECs (IP anti-AMIGO2, blot anti-PDK1).
In assay [4] the target is T2, Flag-PDK1 (UniProt O15530 1-556, limits assumed).
T2 construct: Expressed in HEK293T cells for co-immunoprecipitation; not shown: Flag tag
T2 sequence (looked up): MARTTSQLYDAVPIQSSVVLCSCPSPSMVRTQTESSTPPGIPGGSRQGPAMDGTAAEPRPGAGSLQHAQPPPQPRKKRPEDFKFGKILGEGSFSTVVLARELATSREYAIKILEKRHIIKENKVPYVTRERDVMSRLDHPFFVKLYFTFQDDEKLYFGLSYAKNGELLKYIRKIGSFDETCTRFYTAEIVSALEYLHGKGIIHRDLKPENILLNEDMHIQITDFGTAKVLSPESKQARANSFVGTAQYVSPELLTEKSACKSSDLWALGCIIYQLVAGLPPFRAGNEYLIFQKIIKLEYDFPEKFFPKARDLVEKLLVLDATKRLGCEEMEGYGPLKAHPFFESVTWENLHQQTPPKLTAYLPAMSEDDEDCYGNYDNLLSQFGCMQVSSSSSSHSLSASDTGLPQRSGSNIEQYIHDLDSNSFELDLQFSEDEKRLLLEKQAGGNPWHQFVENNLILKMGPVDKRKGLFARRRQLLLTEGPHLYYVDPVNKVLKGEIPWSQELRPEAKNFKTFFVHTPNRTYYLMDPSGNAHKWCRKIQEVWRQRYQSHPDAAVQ
Kind of assay: co-immunoprecipitation (IP Flag, blot anti-GFP).

Assay [5] has as its target T2, Flag-PDK1. Kind of assay: co-immunoprecipitation of GFP-tagged AMIGO2 constructs with Flag-PDK1.
Assay [6] concerns the target T2, Flag-PDK1. As to the kind of experiment: co-immunoprecipitation of GFP-tagged CD with Flag-PDK1.
The target in assay [7] is T2, Flag-PDK1. As to the kind of experiment: co-immunoprecipitation of GFP-tagged truncated AMIGO2 with Flag-PDK1.

No constants are given. Whether binding was seen depends on the method and setting. In cells and extracts the contact can be indirect. Some binding calls cover weakened binding; strength is not graded here. For some of these results: Sequences can lack the tags named with a protein.

B1: adhesion molecule with Ig-like domain 2 (AMIGO2), endogenous in HUVECs (receptor)
chain: VCPTACICATDIVSCTNKNLSKVPGNLFRLIKRLDLSYNRIGLLDSEWIPVSFAKLNTLILRHNNITSISTGSFSTTPNLKCLDLSSNKLKTVKNAVFQELKVLEVLLLYNNHISYLDPSAFGGLSQLQKLYLSGNFLTQFPMDLYVGRFKLAELMFLDVSYNRIPSMPMHHINLVPGKQLRGIYLHGNPFVCDCSLYSLLVFWYRRHFSSVMDFKNDYTCRLWSDSRHSRQVLLLQDSFMNCSDSIINGSFRALGFIHEAQVGERLMVHCDSKTGNANTDFIWVGPDNRLLEPDKEMENFYVFHNGSLVIESPRFEDAGVYSCIAMNKQRLLNETVDVTINVSNFTVSRSHAHEAFNTAFTTLAACVASIVLVLLYLYLTPCPCKCKTKRQKNMLHQSNAHSSILSPGPASDASADERKAGAGKRVVFLEPLKDTAAGQNGKVRLFPSEAVIAEGILKSTRGKSDSDSVNSVFSDTPFVAST
For B1, the binding result in assay [1], in assay [2] and in assay [3] was “binds” throughout.

B2: GFP-AMIGO2 (EGFP-tagged full-length human AMIGO2) (receptor, not shown: large carriers)
chain: VCPTACICATDIVSCTNKNLSKVPGNLFRLIKRLDLSYNRIGLLDSEWIPVSFAKLNTLILRHNNITSISTGSFSTTPNLKCLDLSSNKLKTVKNAVFQELKVLEVLLLYNNHISYLDPSAFGGLSQLQKLYLSGNFLTQFPMDLYVGRFKLAELMFLDVSYNRIPSMPMHHINLVPGKQLRGIYLHGNPFVCDCSLYSLLVFWYRRHFSSVMDFKNDYTCRLWSDSRHSRQVLLLQDSFMNCSDSIINGSFRALGFIHEAQVGERLMVHCDSKTGNANTDFIWVGPDNRLLEPDKEMENFYVFHNGSLVIESPRFEDAGVYSCIAMNKQRLLNETVDVTINVSNFTVSRSHAHEAFNTAFTTLAACVASIVLVLLYLYLTPCPCKCKTKRQKNMLHQSNAHSSILSPGPASDASADERKAGAGKRVVFLEPLKDTAAGQNGKVRLFPSEAVIAEGILKSTRGKSDSDSVNSVFSDTPFVAST
With B2, the binding entry in the assay with Flag-PDK1 [4] is “binds”.

B3: AMIGO2^CD (GFP-tagged cytosolic domain of AMIGO2, 420-522aa) (protein, not shown: large carriers)
chain: TPCPCKCKTKRQKNMLHQSNAHSSILSPGPASDASADERKAGAGKRVVFLEPLKDTAAGQNGKVRLFPSEAVIAEGILKSTRGKSDSDSVNSVFSDTPFVAST
In the case of B3, the binding entry with Flag-PDK1 [5] and with Flag-PDK1 [6] was “binds” in each case.

B4: AMIGO2^491aa (GFP-tagged AMIGO2 truncated after residue 491) (receptor, not shown: large carriers)
chain: VCPTACICATDIVSCTNKNLSKVPGNLFRLIKRLDLSYNRIGLLDSEWIPVSFAKLNTLILRHNNITSISTGSFSTTPNLKCLDLSSNKLKTVKNAVFQELKVLEVLLLYNNHISYLDPSAFGGLSQLQKLYLSGNFLTQFPMDLYVGRFKLAELMFLDVSYNRIPSMPMHHINLVPGKQLRGIYLHGNPFVCDCSLYSLLVFWYRRHFSSVMDFKNDYTCRLWSDSRHSRQVLLLQDSFMNCSDSIINGSFRALGFIHEAQVGERLMVHCDSKTGNANTDFIWVGPDNRLLEPDKEMENFYVFHNGSLVIESPRFEDAGVYSCIAMNKQRLLNETVDVTINVSNFTVSRSHAHEAFNTAFTTLAACVASIVLVLLYLYLTPCPCKCKTKRQKNMLHQSNAHSSILSPGPASDASADERKAGAGKRVVFLEPLKDTAAGQNGKVRLFPSEAV
B4: in the assay with Flag-PDK1 [7], the binding entry is given as “binds”.
